Out of some 6,900 compounds screened, fewer than 10 were called active. The call rests on the fitted dose curve; in most records, active means well fitted curve in the direction sought with a large enough effect; inconclusive means small, poorly fitted or top-dose-only effect, or another doubt; inactive means no such curve, though single readings can be large or run the other way. Some of the results follow.
Target: Metallo-beta-lactamase type 2 (Klebsiella pneumoniae) (UniProt C7C422)
Assay: qHTS to identify inhibitors of the New Delhi Metallo-beta-lactamase (NDM): primary screen against the NCATS Gemini Collection; further: % of control where 0% means no effect
Settings: NDM-1 enzyme, meropenem hydrolysis, absorbance 300 nm; at 38.4 µM (top of the series) unless noted
How it was run: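 Meropenem hydrolysis (50 uM final) by 2 nM NDM-1 read as 300 nm absorbance after 30 min, following >30 min compound–enzyme preincubation in HEPES pH 7.0 with 1 uM ZnSO4 and 0.01% Tween20.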

Sequences of proteins named here, by UniProt entry; tags and fusion partners are left off. A change or cut given only in a name is not applied to a line headed by its entry.
UniProt C7C422: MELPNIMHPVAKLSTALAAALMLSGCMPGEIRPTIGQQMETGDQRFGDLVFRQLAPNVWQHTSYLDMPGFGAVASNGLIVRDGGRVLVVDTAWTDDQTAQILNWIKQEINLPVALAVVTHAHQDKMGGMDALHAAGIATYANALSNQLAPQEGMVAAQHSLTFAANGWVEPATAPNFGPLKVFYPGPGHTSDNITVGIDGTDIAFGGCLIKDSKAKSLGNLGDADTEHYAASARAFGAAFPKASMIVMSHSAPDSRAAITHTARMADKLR

Row | SMILES | activity % (negative = inhibition)
1 | Cc1ccc(C(=O)N(CC2CCN(Cc3ccccc3F)CC2)CC2CCCO2)s1 (configuration not stated) | inactive: 0.978%
2 | Cc1cn2nc(C(=O)N3CCC(NC(=O)COc4ccccc4)CC3)cc2c(=O)[nH]1 | inactive: 32%
3 | CC1=C[C@@H](CNC(=O)CCC(=O)O)[C@H](C(C)C)C[C@H]1Cc1nc2ccncc2[nH]1 | inactive: 1.27% [at 57.5 µM]
4 | CSc1ccc(CNC(=O)C2(c3ccc(NS(C)(=O)=O)cc3)CCCCC2)cc1 | inactive: 1.83%
5 | CC(C)(C)c1coc([C@@H]2COCCN2C2CCC2)n1 | inactive: 2.23% [at 77.1 µM]
6 | CN(CC1CCOC1)C(=O)c1ccco1 (configuration not stated) | inactive: 1.45%
7 | O=C(NCCc1nc2ccccc2s1)[C@H]1CNC[C@@H](C(=O)N2CCOCC2)C1 | inactive: 3.68%
8 | O=C(Cc1cccc(Cl)c1)N1CCC2(CN[S+](=O)([O-])c3cccnc3O2)C1 (configuration not stated) | inactive: 0.492%
9 | CC1=Nc2cc(C(=O)NCCCN(C)C)ccc2Sc2ccc(F)cc21 | inactive: 32.1%
10 | CCn1c(CO)nnc1C1CC(NC(=O)CCc2c(C)nn(C)c2C)C1 (configuration not stated) | inactive: -0.901%
11 | Cc1cc(C2CCCN2C(=O)c2ccnn2C)on1 (configuration not stated) | inactive: 0.243%
12 | CCC1COCCN1C(=O)c1coc(COc2ccc3c(c2)OCO3)n1 (configuration not stated) | inactive: 2.74%
13 | O=C1NC2(CCCN(C(=O)Cc3ccccc3)C2)COc2ccccc21 (configuration not stated) | inactive: 12.9%
14 | O=[S+]([O-])(CCC(F)(F)F)N1CCN(Cc2ccccc2-c2cccnc2)CC1 | inactive: -7.3%
15 | COc1cccc(-c2nc3cnccn3c2NCCC(=O)N2CCN(C(C)C)CC2)c1 | inactive: 1.46%
16 | O=S(=O)(N[C@H]1CO[C@H]2[C@@H]1OC[C@@H]2n1cc(CC2CCCCC2)nn1)c1cccs1 | inactive: 4.48%
17 | Cc1ccc([S+](=O)([O-])N2CCCC2C(=O)N2CCC(c3nc4ccncc4[nH]3)CC2)cc1 (configuration not stated) | inactive: -0.985%
18 | CN(CC1CCCCO1)C(=O)c1coc(COc2ccc3c(c2)OCO3)n1 (configuration not stated) | inactive: -0.312%
19 | O=C1NCCN2CC3(CCN(C(=O)C4(c5ccccc5)CC4)CC3)CC12 (configuration not stated) | inactive: 17.4%
20 | CCOCCCNC(=O)CCc1nc(C2CCCN2C(=O)c2ccccc2)no1 (configuration not stated) | inactive: -1.05%
21 | O=S(=O)(NCC1CCOCC1)c1cccc(F)c1 | inactive: 0.087%

Row | SMILES | activity % (negative = inhibition)
22 | Cc1noc(C)c1S(=O)(=O)N1CCCC(Cc2nncn2C(C)C)C1 (configuration not stated) | inactive: -1.61%
23 | C=CCn1c(CN2CCC3(CC(=O)NC3=O)C2)nc2ccccc21 (configuration not stated) | inactive: 1.69%
24 | Cc1ncoc1C(=O)N1CCC[C@H](n2c(=O)n(C)c3cccnc32)C1 | inactive: 8.16%
25 | Cc1cnc(C2CCOCC2)n1C1CCNCC1 | inactive: -11.8%
26 | O=c1cc2c(nn1Cc1cccc(Br)c1)CCCCC2 | inactive: -1.73%
27 | COCCn1c(C)cnc1CCNC(=O)Cn1nc(C(F)(F)F)cc1C | inactive: 5.86%
28 | CC(C)N1C(=O)[C@@H]2[C@@H](CCN2C(=O)CCCC(=O)O)N(Cc2cccc(F)c2)C1=O | inactive: 1.95% [at 57.5 µM]
29 | CN(CCC1CCOCC1)Cc1ccccc1OCC(O)CN1CCSCC1 (configuration not stated) | inactive: -0.827%
30 | Cc1oc2ccn(C)c(=O)c2c1C(=O)NCc1cc(F)ccc1F | inactive: 6.63%
31 | O=C(N[C@@H]1CCN(C(=O)CCCn2cccn2)C[C@H]1O)c1ccccn1 | inactive: -0.273%
32 | CN1CCCN(S(=O)(=O)c2cn(C)cn2)c2ccccc21 | inactive: 12.5%
33 | Cn1cnc(S(=O)(=O)N2c3ccccc3CC2c2noc(C3CCOCC3)n2)c1 (configuration not stated) | inactive: -16.3%
34 | CCC(=O)N1CCC(CC(=O)N2CCOCC2)C1 (configuration not stated) | inactive: 13.6%
35 | CC(C)NC(=O)NC1CC2(CCN(C(=O)Cc3ccc(O)cc3)CC2)c2ccccc21 (configuration not stated) | inactive: 2.61%
36 | COc1ccccc1C(=O)N1CCCC(CN2CCC(C)CC2)CC1 (configuration not stated) | inactive: 6.6%
37 | Cc1[nH]cnc1-c1nccn1CC(CO)Cc1cccs1 (configuration not stated) | inactive: 37.4%
38 | O=C([C@@H]1C[C@@H](c2ccc(F)cc2)N([S+](=O)([O-])c2cccnc2)C1)N1CCOCC1 | inactive: 0.401% [at 57.5 µM]
39 | CS(=O)(=O)Nc1ccc(OCC(=O)N2CCN(c3ccc(F)cc3)CC2)nc1 | inactive: 0.186%
40 | Cn1cc(CN2CCOc3cc([S+](=O)([O-])Nc4ccccc4)ccc3C2)cn1 | inactive: 16.2% [at 57.5 µM]
41 | CCn1ncc(NC(=O)Cn2ncc3cc(-c4ccccc4F)ccc32)n1 | inactive: 5.65%
42 | CCCNC(=O)N1CC[C@@H]2[C@H]1C(=O)N(c1cccc(F)c1)C(=O)N2Cc1cccs1 | inactive: 5.06% [at 57.5 µM]

As entered above.
activity % (negative = inhibition), `Cn1cc(CN2CCOc3cc([S+](=O)([O-])Nc4ccccc4)ccc3C2)cn1` is entered as inactive: 16.2% [at 57.5 µM]
activity % (negative = inhibition), `CN1CCCN(S(=O)(=O)c2cn(C)cn2)c2ccccc21` is entered as inactive: 12.5%

— PubChem BioAssay AID1794845 (National Center for Advancing Translational Sciences (NCATS), 2023)
